In PubChem BioAssay AID1117319 (Southern Research Institute, 2015):
Out of some 260,000 compounds screened, about 1,500 (0.58%) were called active. The shares of active, inactive and inconclusive entries below differ from those in the screen.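 Rule for the calls: active = inhibition above a set limit at one or more doses, reproduced on every date tested; inconclusive = results disagree between test dates, or hit never tested in dose response; inactive = the rest.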

Chains of the proteins cited; added tags and fusions are not shown. Lines headed by an entry give the natural chain unless they say otherwise; changes in a name come on top.
UniProt P69720: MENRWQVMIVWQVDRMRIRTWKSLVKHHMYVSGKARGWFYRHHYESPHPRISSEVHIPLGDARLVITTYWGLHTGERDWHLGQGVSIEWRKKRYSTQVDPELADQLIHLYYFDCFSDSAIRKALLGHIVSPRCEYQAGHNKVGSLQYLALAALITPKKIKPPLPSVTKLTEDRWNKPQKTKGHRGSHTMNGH
UniProt P69721: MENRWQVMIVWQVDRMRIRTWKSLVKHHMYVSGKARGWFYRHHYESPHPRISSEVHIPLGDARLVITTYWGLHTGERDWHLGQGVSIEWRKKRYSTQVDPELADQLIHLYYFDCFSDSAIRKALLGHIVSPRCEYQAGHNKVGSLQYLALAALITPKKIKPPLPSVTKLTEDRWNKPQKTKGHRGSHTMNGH
UniProt P69722: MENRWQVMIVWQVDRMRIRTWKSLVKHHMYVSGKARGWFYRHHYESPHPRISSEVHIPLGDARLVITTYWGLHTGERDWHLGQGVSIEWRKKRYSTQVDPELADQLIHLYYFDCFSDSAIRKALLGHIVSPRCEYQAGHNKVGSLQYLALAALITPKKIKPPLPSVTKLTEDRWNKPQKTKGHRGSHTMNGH
UniProt P69723: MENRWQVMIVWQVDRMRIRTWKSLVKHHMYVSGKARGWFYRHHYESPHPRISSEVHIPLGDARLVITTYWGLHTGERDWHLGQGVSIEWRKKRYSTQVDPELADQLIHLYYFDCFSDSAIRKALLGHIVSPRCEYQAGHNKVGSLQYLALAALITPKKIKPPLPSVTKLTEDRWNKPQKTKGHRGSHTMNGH
UniProt Q9HC16: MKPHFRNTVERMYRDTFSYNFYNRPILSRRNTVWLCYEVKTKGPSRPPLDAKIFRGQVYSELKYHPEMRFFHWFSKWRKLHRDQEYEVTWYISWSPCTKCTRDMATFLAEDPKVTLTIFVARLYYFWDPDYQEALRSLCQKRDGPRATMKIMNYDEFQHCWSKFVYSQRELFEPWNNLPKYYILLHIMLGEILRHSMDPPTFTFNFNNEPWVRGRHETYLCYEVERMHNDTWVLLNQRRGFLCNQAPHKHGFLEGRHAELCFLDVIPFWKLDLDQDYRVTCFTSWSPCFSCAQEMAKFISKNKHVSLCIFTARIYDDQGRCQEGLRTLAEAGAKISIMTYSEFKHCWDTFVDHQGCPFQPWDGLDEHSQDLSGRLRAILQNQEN

molecular target: Virion infectivity factor (Human immunodeficiency virus type 1 group M subtype B (isolate BH10)) + Virion infectivity factor (Human immunodeficiency virus type 1 group M subtype B (isolate BRU/LAI)) + Virion infectivity factor (Human immunodeficiency virus type 1 group M subtype B (isolate PCV12)) + Virion infectivity factor (Human immunodeficiency virus type 1 group M subtype B (isolate HXB2)) + DNA dC->dU-editing enzyme APOBEC-3G (Homo sapiens) (UniProt P69720+P69721+P69722+P69723+Q9HC16); assay: inhibitors of Vif binding to APOBEC3G peptide, primary screen, biochemical, TR-FRET, GST-Vif 1-94, biotin-A3G peptide, dose response retest (AID 1117319); conditions: stronger effect = higher value;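 note: Vif residues 1-94 fused to GST binding biotinylated APOBEC3G peptide 110-148; 0% = full assay without inhibitor and 100% = GST in place of GST-Vif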

SMILES	inhibition
COc1cccc(N2C(=O)NC(=O)/C(=C/c3ccc4c5c(cccc35)CC4)C2=O)c1	inconclusive: 62.4%
CCn1cc(C(=O)O)c(=O)c2ccc(C)nc21	inconclusive: 38.6%
CC1(C)OC(c2ccccc2)=C/C(=C/C=C2C(=O)NC(=S)NC2=O)O1	inconclusive: 40.6%
CCN(CC)c1ccc(/C=C2/C(=O)NC(=O)N(CC3CCCO3)C2=O)cc1 (stereo not given)	inconclusive: 47.1%
Cc1c(N=Nc2c(O)[nH]c(=S)[nH]c2=O)c(=O)n(-c2ccccc2)n1C	inconclusive: 42.7%
CC(C)c1ccc(-n2c(O)c(/C=N/NC(=O)c3ccccc3O)c(=O)[nH]c2=S)cc1	inconclusive: 53.4%
CC(=O)N1CCN(CC(=O)Nc2ccc(C#N)c(Cl)c2)CC1	inconclusive: 45.4%
Cn1c(O)c(C=NCCN2CCOCC2)c(=O)[nH]c1=S	inconclusive: 60%
O=P(O)(Oc1ccccc1)OC(c1ccccc1)C(F)(F)C(F)(F)F (stereo not given)	inconclusive: 41.2%
CC(=O)c1c(O)n(-c2cccc(Cl)c2)c(=O)[nH]c1=O (tested in a mixture with another compound)	inconclusive: 45.9%
CCc1nnc(NS(=O)(=O)c2ccc(N=Cc3c(O)n(-c4ccccc4)c(=O)[nH]c3=O)cc2)s1	inconclusive: 41.6%
O=C1NC(=O)C2(Cc3ccccc3N3CCCC32)C(=O)N1 (stereo not given)	inconclusive: 51.9%
COc1ccc2cc(C(=O)C3CCCN(C4CCOCC4)C3)ccc2c1 (stereo not given)	inconclusive: 34.6%
Cc1cccc(N2C(=O)NC(=O)/C(=C\c3cnc(-c4ccccc4)nc3)C2=O)c1	inconclusive: 47.7%
COc1cc(/C=C2\C(=O)NC(=O)N(c3ccccc3)C2=O)cc(OC)c1O	inconclusive: 35.1%
CCOC(=O)c1c(-c2ccccc2)oc2ccc(OC(=O)N(C)C)cc12	inconclusive: 51%
C/C(=N\NC(=O)c1ccncc1)c1c(O)n(Cc2ccccc2)c(=O)[nH]c1=O	inconclusive: 48.8%
O=C1NC(=S)NC(=O)C1=Cc1ccc2c(c1)CCN2CCCCl	inconclusive: 49.1%
CN1CC(C(=O)c2ccccc2)C(C(=O)c2ccccc2)C1 (stereo not given)	inconclusive: 40.1%
CC(=O)c1cccc(NC2=NCC(C)S2)c1 (stereo not given)	inconclusive: 40.3%
Cc1cc(NC(=O)COC(=O)c2c(C)nn(Cc3ccccc3)c2C)no1	inconclusive: 33.1%
CC(C)N1CCC2(CC1)NC(CO)(CO)CO2	inconclusive: 54%
COc1ccc(O)c(CN2CCCC(C(=O)c3sccc3C)C2)c1 (stereo not given)	inconclusive: 37%
N[C@@H](Cc1cc(Br)c(O)c(Br)c1)C(=O)O	inconclusive: 43.4%
COc1ccccc1-n1c(O)c(C=NCCCn2ccnc2)c(=O)[nH]c1=O	inconclusive: 44.9%
CNc1ccc2oc(C[C@H]3O[C@@]4(CC[C@H]3C)O[C@H]([C@H](C)C(=O)c3ccc[nH]3)[C@H](C)C[C@H]4C)nc2c1C(=O)O	inconclusive: 55.9%
Cc1cc(C=C2C(=O)N(C)C(=S)N(C)C2=O)c(C)n1-c1cccnc1	inconclusive: 58.1%
Cc1ccc(/C=C2\C(=O)NC(=S)N(c3ccc(F)cc3)C2=O)s1	inconclusive: 35.4%

SMILES	inhibition
Cc1ccc2c(c1)C1CN(C)CCC1N2C(=O)Cn1nnc(-c2ccccc2F)n1 (stereo not given)	inconclusive: 47%
O=C(CN1CC(c2ccccc2)CC1=O)Nc1ccccc1 (stereo not given)	inconclusive: 45.9%
COc1cc(CC2C(=O)N(C)C(=O)N(C)C2=O)ccc1OCc1ccccc1	inconclusive: 22.1%
COCC(C)OC(=O)c1c(N)n(Cc2ccco2)c2nc3ccccc3nc12 (stereo not given)	inconclusive: 37.5%
CN1C(=O)/C(=C\c2ccc(N3CCCCCC3)cc2)C(=O)NC1=S	inconclusive: 42.3%
COc1cccc(/C=C2\N=C(c3cncc(Br)c3)OC2=O)c1	inconclusive: 39.9%
O=C1NC(=O)N(c2ccc3c(c2)OCO3)C(=O)/C1=C/c1ccc(N2CCCC2)o1	inconclusive: 36.6%
Cn1cccc1CN1CCN(C(=O)COc2ccccc2)CC1	inconclusive: 35.1%
O=C(Cc1ccccc1)N1CCN(CC2CC=CCC2)CC1 (stereo not given)	inconclusive: 46.7%
CN(Cc1c[nH]c2ccccc12)C1CCCCC1	inconclusive: 61.9%
O=C(O)CCn1cc(C=C2C(=O)NC(=S)NC2=O)c(-c2cc3ccccc3oc2=O)n1	inconclusive: 36.3%
O=C1NC(=O)N(c2ccccc2F)C(=O)/C1=C/c1ccc(Oc2ccc([N+](=O)[O-])cn2)cc1	inconclusive: 47.5%
C=CCN1C(=O)NC(=O)/C(=C/c2cccn2C)C1=O	inconclusive: 41.7%
C=CCn1c(O)c(C(C)=Nc2ccc(N(C)C)cc2)c(=O)[nH]c1=O	inconclusive: 43.9%
NC(=O)c1cn(C2OC(CO)C(O)C2O)c2ncnc(N)c12 (stereo not given)	inconclusive: 55.5%
[N-]=[N+]=CC(=O)OC[C@H](N)C(=O)O	inconclusive: 49.9%
O=[N+]([O-])NC1=NCN(Cc2ccco2)CN1Cc1ccco1	inconclusive: 54.2%
CN1CCc2nc3ccc(F)cc3c(C(N)=O)c2C1	inconclusive: 41.7%
CCOc1ccc(-n2c(O)c(C=NCCCn3ccnc3)c(=O)[nH]c2=O)cc1	inconclusive: 43.8%
O=[N+]([O-])c1ccc(N2CCNCC2)c(Cl)c1	inconclusive: 35.1%
Cc1ccc(N2Cc3ccccc3C2=N)cc1[N+](=O)[O-]	inconclusive: 52.9%
CC(C)N1CCN(Cc2cccc([N+](=O)[O-])c2)CC1	inconclusive: 59.7%
CC(=NCc1ccc2c(c1)OCO2)c1c(O)n(Cc2ccccc2)c(=O)[nH]c1=O	inconclusive: 58.9%
Cc1ccc(N2C(=O)NC(=O)/C(=C\c3ccsc3)C2=O)cc1C	inconclusive: 46%
O=c1c2ccccc2nc(/C=C/c2ccco2)n1-c1ccccc1O	inconclusive: 47.4%
CCCC(C)n1[nH]c(=O)c2c1NC(=O)CSC2c1ccc(OC)cc1 (stereo not given)	inconclusive: 44%
COc1ccc(Cn2c(O)c(/C=N/NC(=O)c3ccccc3)c(=O)[nH]c2=O)cc1	inconclusive: 53.6%

Reprinted at random: 3 records from the list.
SMILES	inhibition
CC(=O)c1cccc(NC2=NCC(C)S2)c1 (stereo not given)	inconclusive: 40.3%
CC(C)N1CCC2(CC1)NC(CO)(CO)CO2	inconclusive: 54%
Cn1cccc1CN1CCN(C(=O)COc2ccccc2)CC1	inconclusive: 35.1%

No new results follow: entries from further up.
SMILES	inhibition
CCOc1ccc(-n2c(O)c(C=NCCCn3ccnc3)c(=O)[nH]c2=O)cc1	inconclusive: 43.8%
O=[N+]([O-])c1ccc(N2CCNCC2)c(Cl)c1	inconclusive: 35.1%
